Consider 1 molecule from patent US20140193400A1 (ESBATECH AN ALCON BIOMEDICAL RESEARCH UNIT, published 2014).

By UniProt entry, the sequences of proteins in these tests, tags left out. Residues count along the entry.
UniProt P01375, residues 77-233: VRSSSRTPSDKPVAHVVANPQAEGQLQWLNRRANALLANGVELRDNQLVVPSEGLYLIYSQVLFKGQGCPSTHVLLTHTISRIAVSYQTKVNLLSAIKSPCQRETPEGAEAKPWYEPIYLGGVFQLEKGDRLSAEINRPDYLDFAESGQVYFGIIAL

These are yes or no findings as the source states them, for the method shown. Some binding calls cover weakened binding; strength is not graded here.

In the test the target is recombinant human TNFalpha (human, UniProt P01375 77-233). Briefly: secretion ELISA on TNFα, bacterial culture supernatant not normalised for single-chain antibody content. (In general: An ELISA detects its analyte on a solid surface through an enzyme-linked reagent.)

B1: EP19_max (scFv)
scFv: EIVMTQSPSTLSASVGDRVIITCQASDNIYRGLAWYQQKPGKAPKLLIYDASTLQSGVPSRFSGSGSGTQFTLTISSLQPDDFATYYCLGVYGYSSDDGAAFGQGTKLTVLGGGGGSGGGGSGGGGSGGGGSEVQLVESGGGLVQPGGSLRLSCTVSGFSLNSNEISWVRQAPGKGLEWVGYIGNGGMTHYASWAKGRFTISRDTSKNTVYLQMNSLRAEDTAVYYCASSVEYTDLYYLNIWGQGTLVTVSS
notes: also called 1007; EP19maxmod
In the case of B1, the binding entry is recorded as “binds”.
